No constants are given. Whether binding was seen depends on the method and setting. Binding seen in cells or lysates may run through a third protein. Some results given as binding are weak or reduced against the parent protein; the word gives no strength. For part of these data: Sequences can lack the tags named with a protein.

Chains of the proteins cited; added tags and fusions are not shown.
UniProt P29466: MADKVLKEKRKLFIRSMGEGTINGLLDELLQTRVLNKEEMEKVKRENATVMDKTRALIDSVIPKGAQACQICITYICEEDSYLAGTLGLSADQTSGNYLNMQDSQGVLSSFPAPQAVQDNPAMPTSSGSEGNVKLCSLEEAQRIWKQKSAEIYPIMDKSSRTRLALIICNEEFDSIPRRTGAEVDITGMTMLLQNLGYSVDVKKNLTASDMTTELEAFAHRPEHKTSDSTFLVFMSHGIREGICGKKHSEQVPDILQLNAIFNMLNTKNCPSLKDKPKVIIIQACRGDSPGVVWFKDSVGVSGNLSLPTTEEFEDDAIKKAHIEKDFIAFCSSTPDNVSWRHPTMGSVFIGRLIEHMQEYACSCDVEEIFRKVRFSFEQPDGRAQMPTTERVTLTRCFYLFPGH

Assay [1] deals with T1, NOD1-mOrange (UniProt Q9Y239).
T1 sequence: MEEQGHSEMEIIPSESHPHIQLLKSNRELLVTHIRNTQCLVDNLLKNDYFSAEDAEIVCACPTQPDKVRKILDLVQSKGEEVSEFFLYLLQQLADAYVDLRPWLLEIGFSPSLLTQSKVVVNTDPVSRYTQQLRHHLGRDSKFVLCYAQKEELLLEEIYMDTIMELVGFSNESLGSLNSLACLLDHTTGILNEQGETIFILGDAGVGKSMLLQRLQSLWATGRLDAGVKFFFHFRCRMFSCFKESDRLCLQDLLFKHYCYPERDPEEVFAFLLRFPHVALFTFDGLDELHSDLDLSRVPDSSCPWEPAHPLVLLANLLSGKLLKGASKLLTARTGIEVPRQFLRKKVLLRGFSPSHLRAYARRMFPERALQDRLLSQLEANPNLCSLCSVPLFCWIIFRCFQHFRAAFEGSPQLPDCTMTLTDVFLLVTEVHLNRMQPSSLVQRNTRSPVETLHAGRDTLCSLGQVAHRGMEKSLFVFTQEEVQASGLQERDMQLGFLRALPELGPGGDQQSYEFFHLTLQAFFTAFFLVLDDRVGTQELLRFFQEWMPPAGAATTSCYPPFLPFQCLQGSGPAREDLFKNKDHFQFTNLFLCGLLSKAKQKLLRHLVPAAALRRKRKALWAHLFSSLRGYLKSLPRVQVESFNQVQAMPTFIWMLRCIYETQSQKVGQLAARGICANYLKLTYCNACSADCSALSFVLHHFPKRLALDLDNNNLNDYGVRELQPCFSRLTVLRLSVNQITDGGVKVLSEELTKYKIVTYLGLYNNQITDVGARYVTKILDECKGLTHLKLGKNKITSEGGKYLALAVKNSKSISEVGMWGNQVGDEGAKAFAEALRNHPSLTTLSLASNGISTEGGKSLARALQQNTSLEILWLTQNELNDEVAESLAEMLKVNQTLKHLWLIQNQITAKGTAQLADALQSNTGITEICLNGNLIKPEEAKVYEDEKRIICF
As to the kind of experiment: condition: only cells not stimulated with H. pylori; FRET or BRET; FLIM-FRET in live shNOD1 AGS cells transfected with NOD1-mOrange and caspase-1-GFP, left untreated (no H. pylori). In general terms: In BRET a luciferase serves as donor, and the signal depends on an acceptor being close.

The target of assay [2] is T1, NOD1-mOrange. As to the kind of experiment: FRET or BRET; FLIM-FRET in live shNOD1 AGS cells transfected with NOD1-mOrange and caspase-1-GFP, stimulated with H. pylori 251; fall of the donor's fluorescence lifetime.
Assay [3] concerns the target T2, full-length NOD1-FLAG (UniProt Q9Y239).
T2 sequence: T1 sequence
Kind of assay: co-IP; lysates of transfected NOD1 KO AGS cells (stimulated with H. pylori or left untreated) immunoprecipitated with anti-FLAG antibody; blot with anti-FLAG and anti-caspase-1.

Regarding “caspase-1-GFP (from UniProt P29466 1-404)”, the binding entry in assay [1] was “no binding”; in assay [2], “binds”.

With “endogenous caspase-1 (from UniProt P29466 1-404)”, the binding result in assay [3] is recorded as “binds”.

The values above are taken from PMC10293252.
